According to paper PMC10243067:
No constants are given. Whether binding was seen depends on the method and setting. Binding seen in cells or lysates may run through a third protein. Here binding means that the protein was enriched with, or labelled near, the bait; the list need not be complete.

The chains behind the UniProt entries cited, without tags or fusion partners.
UniProt Q86U44: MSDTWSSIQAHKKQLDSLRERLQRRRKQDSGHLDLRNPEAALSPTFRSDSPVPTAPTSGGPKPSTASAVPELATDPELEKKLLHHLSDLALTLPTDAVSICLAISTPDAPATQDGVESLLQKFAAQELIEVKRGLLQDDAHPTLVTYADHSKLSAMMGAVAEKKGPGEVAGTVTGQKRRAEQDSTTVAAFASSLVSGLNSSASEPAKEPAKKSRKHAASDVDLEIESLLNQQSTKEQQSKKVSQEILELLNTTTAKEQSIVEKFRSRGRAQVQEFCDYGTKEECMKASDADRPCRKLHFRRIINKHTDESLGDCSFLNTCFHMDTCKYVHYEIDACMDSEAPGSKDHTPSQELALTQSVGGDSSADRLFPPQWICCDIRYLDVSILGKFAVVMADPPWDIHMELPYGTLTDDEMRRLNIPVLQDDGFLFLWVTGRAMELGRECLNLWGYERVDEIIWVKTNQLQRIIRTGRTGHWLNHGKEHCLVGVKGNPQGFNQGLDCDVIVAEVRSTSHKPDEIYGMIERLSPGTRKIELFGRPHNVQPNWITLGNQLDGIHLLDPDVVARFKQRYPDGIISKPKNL
UniProt O75592: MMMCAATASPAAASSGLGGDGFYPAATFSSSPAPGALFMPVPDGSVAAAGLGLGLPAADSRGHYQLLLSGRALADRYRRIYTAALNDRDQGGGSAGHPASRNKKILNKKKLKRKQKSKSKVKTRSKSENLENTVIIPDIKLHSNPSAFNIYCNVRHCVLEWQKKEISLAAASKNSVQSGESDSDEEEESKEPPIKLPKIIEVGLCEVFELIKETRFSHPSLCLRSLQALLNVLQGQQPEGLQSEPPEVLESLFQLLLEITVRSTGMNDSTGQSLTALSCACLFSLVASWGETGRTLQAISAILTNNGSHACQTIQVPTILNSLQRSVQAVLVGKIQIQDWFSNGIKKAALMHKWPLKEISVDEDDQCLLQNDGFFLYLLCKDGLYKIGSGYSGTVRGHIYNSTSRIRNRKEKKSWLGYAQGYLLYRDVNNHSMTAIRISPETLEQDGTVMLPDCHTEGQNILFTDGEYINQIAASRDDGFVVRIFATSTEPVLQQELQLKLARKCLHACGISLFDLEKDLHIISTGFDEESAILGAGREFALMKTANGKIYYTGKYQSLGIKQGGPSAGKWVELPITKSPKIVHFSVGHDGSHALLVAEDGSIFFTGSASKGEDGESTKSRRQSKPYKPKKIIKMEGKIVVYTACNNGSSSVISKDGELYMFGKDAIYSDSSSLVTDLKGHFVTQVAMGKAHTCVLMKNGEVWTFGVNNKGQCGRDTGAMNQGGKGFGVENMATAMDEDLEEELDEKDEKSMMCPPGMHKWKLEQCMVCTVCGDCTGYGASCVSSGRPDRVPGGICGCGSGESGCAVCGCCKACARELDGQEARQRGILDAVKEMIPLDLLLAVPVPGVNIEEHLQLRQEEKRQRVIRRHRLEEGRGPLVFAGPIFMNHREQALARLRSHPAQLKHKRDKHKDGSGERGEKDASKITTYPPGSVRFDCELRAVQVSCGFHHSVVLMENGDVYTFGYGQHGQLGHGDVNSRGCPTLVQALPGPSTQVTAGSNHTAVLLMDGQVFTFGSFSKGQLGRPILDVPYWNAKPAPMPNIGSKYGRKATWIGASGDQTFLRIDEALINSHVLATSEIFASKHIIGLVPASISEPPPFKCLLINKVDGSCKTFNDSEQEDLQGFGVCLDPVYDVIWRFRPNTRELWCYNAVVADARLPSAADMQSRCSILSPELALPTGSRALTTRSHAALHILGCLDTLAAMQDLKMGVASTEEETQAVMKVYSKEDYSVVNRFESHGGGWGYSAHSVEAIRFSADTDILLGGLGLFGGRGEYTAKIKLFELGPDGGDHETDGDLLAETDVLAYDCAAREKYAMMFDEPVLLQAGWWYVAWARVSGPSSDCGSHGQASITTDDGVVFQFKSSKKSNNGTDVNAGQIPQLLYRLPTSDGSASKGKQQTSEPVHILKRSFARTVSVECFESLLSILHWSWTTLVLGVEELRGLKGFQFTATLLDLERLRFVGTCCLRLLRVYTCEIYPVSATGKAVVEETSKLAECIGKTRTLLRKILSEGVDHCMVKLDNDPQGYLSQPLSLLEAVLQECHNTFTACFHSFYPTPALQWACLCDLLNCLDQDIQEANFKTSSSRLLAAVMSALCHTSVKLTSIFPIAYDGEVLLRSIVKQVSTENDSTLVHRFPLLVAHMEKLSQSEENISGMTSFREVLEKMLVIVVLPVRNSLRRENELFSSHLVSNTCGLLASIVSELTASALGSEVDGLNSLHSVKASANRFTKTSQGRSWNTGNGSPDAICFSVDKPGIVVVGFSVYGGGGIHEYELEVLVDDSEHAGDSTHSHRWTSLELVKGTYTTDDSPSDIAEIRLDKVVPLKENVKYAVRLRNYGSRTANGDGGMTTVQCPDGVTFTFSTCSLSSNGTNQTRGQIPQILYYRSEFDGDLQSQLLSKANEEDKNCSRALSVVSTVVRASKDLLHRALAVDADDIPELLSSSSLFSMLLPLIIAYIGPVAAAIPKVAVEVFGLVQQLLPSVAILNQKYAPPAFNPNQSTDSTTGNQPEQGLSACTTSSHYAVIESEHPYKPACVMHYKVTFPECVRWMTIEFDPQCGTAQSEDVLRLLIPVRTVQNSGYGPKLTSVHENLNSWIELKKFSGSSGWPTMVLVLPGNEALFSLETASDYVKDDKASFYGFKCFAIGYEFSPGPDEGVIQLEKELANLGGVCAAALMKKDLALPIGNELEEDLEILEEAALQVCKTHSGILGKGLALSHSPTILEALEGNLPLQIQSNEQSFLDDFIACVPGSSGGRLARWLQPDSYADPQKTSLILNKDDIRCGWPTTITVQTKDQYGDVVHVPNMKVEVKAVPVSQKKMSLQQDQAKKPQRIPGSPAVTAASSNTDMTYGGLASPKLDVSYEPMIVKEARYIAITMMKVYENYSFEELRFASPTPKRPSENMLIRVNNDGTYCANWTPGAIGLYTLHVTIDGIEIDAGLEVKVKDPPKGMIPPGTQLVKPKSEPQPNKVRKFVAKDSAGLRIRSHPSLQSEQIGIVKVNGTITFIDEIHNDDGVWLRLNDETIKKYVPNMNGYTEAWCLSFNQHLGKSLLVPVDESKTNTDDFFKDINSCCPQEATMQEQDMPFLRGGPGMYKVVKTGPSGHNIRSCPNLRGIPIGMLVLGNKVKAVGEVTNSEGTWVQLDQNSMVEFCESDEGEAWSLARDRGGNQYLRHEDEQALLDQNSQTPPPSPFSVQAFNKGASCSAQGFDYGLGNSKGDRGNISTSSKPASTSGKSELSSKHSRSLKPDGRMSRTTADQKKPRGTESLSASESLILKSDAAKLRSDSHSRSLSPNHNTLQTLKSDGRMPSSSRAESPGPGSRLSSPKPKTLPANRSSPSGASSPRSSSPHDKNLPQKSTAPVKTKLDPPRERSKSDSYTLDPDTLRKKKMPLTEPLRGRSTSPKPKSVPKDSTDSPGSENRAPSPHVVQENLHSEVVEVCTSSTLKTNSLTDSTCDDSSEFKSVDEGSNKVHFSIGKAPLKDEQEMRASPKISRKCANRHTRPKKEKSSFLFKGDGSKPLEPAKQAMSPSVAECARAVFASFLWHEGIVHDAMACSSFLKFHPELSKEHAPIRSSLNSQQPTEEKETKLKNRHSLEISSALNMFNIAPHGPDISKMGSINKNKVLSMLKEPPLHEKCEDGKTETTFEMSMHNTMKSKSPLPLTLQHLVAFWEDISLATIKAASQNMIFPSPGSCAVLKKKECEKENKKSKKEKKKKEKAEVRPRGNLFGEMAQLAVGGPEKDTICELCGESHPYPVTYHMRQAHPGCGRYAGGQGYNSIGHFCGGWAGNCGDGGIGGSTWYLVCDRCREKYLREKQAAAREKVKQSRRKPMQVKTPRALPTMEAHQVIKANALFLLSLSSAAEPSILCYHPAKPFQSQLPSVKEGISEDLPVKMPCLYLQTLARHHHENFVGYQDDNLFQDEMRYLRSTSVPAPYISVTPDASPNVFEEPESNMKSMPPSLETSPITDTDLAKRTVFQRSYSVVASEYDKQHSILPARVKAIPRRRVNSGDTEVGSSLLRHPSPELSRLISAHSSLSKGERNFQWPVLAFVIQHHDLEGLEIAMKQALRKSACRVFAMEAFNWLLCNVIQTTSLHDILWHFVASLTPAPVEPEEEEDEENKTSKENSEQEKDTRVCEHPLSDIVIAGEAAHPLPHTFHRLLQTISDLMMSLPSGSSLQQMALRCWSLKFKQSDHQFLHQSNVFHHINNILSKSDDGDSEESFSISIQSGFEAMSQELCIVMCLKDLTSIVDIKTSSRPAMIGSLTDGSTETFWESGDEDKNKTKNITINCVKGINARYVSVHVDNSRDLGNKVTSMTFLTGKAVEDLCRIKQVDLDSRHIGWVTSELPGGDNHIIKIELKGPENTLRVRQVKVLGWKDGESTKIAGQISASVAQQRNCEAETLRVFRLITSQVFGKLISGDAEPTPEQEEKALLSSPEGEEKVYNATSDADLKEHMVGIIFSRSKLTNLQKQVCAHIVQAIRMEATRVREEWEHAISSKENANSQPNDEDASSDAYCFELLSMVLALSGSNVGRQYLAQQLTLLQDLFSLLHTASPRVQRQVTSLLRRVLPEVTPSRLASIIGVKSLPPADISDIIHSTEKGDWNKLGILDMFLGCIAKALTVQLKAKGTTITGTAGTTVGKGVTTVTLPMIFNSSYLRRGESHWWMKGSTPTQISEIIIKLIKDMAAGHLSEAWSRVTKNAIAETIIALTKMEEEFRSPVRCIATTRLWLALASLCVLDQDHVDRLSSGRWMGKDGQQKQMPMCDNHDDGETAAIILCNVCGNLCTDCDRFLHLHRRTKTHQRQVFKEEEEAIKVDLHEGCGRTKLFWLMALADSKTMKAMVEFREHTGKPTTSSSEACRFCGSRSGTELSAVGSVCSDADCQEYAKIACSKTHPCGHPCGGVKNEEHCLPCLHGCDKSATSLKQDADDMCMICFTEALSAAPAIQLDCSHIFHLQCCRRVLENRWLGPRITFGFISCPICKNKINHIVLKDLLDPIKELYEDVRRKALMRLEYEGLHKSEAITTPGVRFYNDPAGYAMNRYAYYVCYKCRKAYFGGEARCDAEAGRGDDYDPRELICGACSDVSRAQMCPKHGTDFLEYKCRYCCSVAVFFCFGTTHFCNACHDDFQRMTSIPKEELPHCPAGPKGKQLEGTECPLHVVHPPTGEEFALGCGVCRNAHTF
UniProt O15541: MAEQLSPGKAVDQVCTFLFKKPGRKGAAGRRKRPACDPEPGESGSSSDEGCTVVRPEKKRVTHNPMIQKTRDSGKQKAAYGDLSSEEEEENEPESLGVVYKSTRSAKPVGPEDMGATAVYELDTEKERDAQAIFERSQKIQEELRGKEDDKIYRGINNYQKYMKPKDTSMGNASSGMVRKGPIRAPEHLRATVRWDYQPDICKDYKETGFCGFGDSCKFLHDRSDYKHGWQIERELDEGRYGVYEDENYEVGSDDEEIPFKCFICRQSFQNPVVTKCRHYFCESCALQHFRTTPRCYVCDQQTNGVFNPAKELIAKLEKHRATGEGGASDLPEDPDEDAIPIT
UniProt P19474: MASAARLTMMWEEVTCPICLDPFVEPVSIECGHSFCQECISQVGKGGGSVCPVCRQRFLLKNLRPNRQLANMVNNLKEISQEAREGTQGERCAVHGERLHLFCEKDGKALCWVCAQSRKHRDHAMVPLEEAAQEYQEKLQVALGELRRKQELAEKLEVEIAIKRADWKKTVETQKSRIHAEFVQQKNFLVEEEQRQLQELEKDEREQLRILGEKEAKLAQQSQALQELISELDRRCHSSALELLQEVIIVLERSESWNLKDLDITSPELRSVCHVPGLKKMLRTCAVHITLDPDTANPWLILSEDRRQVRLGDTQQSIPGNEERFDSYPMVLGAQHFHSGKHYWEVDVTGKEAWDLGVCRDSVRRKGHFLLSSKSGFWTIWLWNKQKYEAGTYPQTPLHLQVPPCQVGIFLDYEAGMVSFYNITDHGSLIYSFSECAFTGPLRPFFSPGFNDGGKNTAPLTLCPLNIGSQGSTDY

B1: TRIM41 (enzyme, UniProt Q8WV44 1-630)
chain: MAAVAMTPNPVQTLQEEAVCAICLDYFTDPVSIGCGHNFCRVCVTQLWGGEDEEDRDELDREEEEEDGEEEEVEAVGAGAGWDTPMRDEDYEGDMEEEVEEEEEGVFWTSGMSRSSWDNMDYVWEEEDEEEDLDYYLGDMEEEDLRGEDEEDEEEVLEEVEEEDLDPVTPLPPPPAPRRCFTCPQCRKSFPRRSFRPNLQLANMVQVIRQMHPTPGRGSRVTDQGICPKHQEALKLFCEVDEEAICVVCRESRSHKQHSVVPLEEVVQEYKAKLQGHVEPLRKHLEAVQKMKAKEERRVTELKSQMKSELAAVASEFGRLTRFLAEEQAGLERRLREMHEAQLGRAGAAASRLAEQAAQLSRLLAEAQERSQQGGLRLLQDIKETFNRCEEVQLQPPEVWSPDPCQPHSHDFLTDAIVRKMSRMFCQAARVDLTLDPDTAHPALMLSPDRRGVRLAERRQEVADHPKRFSADCCVLGAQGFRSGRHYWEVEVGGRRGWAVGAARESTHHKEKVGPGGSSVGSGDASSSRHHHRRRRLHLPQQPLLQREVWCVGTNGKRYQAQSSTEQTLLSPSEKPRRFGVYLDYEAGRLGFYNAETLAHVHTFSAAFLGERVFPFFRVLSKGTRIKLCP
B2: TRIM56 (enzyme, UniProt Q9BRZ2 1-755)
chain: MVSHGSSPSLLEALSSDFLACKICLEQLRAPKTLPCLHTYCQDCLAQLADGGRVRCPECRETVPVPPEGVASFKTNFFVNGLLDLVKARACGDLRAGKPACALCPLVGGTSTGGPATARCLDCADDLCQACADGHRCTRQTHTHRVVDLVGYRAGWYDEEARERQAAQCPQHPGEALRFLCQPCSQLLCRECRLDPHLDHPCLPLAEAVRARRPGLEGLLAGVDNNLVELEAARRVEKEALARLREQAARVGTQVEEAAEGVLRALLAQKQEVLGQLRAHVEAAEEAARERLAELEGREQVARAAAAFARRVLSLGREAEILSLEGAIAQRLRQLQGCPWAPGPAPCLLPQLELHPGLLDKNCHLLRLSFEEQQPQKDGGKDGAGTQGGEESQSRREDEPKTERQGGVQPQAGDGAQTPKEEKAQTTREEGAQTLEEDRAQTPHEDGGPQPHRGGRPNKKKKFKGRLKSISREPSPALGPNLDGSGLLPRPIFYCSFPTRMPGDKRSPRITGLCPFGPREILVADEQNRALKRFSLNGDYKGTVPVPEGCSPCSVAALQSAVAFSASARLYLINPNGEVQWRRALSLSQASHAVAALPSGDRVAVSVAGHVEVYNMEGSLATRFIPGGKASRGLRALVFLTTSPQGHFVGSDWQQNSVVICDGLGQVVGEYKGPGLHGCQPGSVSVDKKGYIFLTLREVNKVVILDPKGSLLGDFLTAYHGLEKPRVTTMVDGRYLVVSLSNGTIHIFRVRSPDS

The molecules below were run against Flag-METTL3 (UniProt Q86U44) (assay: affinity purification with mass spectrometry; Flag-METTL3 expressed in AML cells; METTL3-immunoprecipitated complexes analysed by mass spectrometry).

binding, binds:
HERC2 (from UniProt O95714 1-4834) (enzyme), HUWE1 (from UniProt Q7Z6Z7 1-4374) (enzyme), MYCBP2 (from UniProt O75592 1-4678) (enzyme), RNF113A (from UniProt O15541 1-343) (enzyme), TRIM21 (from UniProt P19474 1-475) (enzyme), TRIM33 (from UniProt Q9UPN9 1-1127) (enzyme), UBR5 (from UniProt O95071 1-2799) (enzyme), B1, B2
